From the supplement of paper PMC12889115
This is one part of the list. Values are raw readings; no control value is given beside them.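 First-pass screen: polymyxin B was added at a level that permeabilizes the Salmonella outer membrane while sparing the inner membrane. DMSO wells, with and without polymyxin B, defined maximum growth. Because plates differed from one another, each plate's data were ranked separately and the compounds with the lowest OD600 were carried forward as hits.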

Test system: Salmonella enterica serovar Typhimurium SL1344
Experiment: bacterial growth OD600 after 18 h with compound and polymyxin B; higher = more bacterial growth (less inhibition)
Conditions: 50 µM, Mueller-Hinton broth

CN(C(=O)CC1(c2ccc(-c3ccccc3)cc2)CC(=O)N(C2CC2)C1=O)C1CCOCC1 (configuration not stated)
bacterial growth OD600 (polymyxin B 0.75 µg/mL): 0.006

C[C@@H]1CN(C2(C(=O)N[C@H]3CC[C@H](O)CC3)Cc3ccccc3C2)C[C@H](C)O1
bacterial growth OD600 (polymyxin B 0.75 µg/mL): 0.847

COc1ccccc1C1CN(CCNC(=O)CC2NC(=O)c3ccccc32)Cc2ccccc2O1 (configuration not stated)
bacterial growth OD600 (polymyxin B 0.75 µg/mL): 0.837

COCc1ccc(C(=O)Nc2ccc(-c3nc(CNC(=O)CCc4scnc4C)c(C)o3)cc2)o1
bacterial growth OD600 (polymyxin B 0.75 µg/mL): 0.813

O=C([C@@H]1C[C@H]1c1ccccc1)N1CCc2onc(-c3ccc(Cl)cc3)c2C1
bacterial growth OD600 (polymyxin B 0.75 µg/mL): 0.226

Cc1ccccc1N1C(=O)CN(C(=O)c2cnsn2)CC1C (configuration not stated)
bacterial growth OD600 (polymyxin B 0.75 µg/mL): 0.831

Cc1nc(N2CCC(NCC3C4CC5CC(C4)CC3C5)CC2)nc2cc(S(C)(=O)=O)ccc12 (configuration not stated)
bacterial growth OD600 (polymyxin B 0.75 µg/mL): 0.786

O=C(c1cnn(-c2ncc3c(n2)-c2ccccc2CC3)c1C1CC1)N1CCN(Cc2ccccc2)CC1
bacterial growth OD600 (polymyxin B 0.75 µg/mL): 0.721

Cc1cnc(C)c(N2CCN(C(=O)c3cn(Cc4ccc(F)cc4)nn3)CC2)n1
bacterial growth OD600 (polymyxin B 1 µg/mL): 0.949

Cc1occc1C(=O)NC1CC(C)(C)Cc2nc(N3CCC(O)CC3)ncc21 (configuration not stated)
bacterial growth OD600 (polymyxin B 0.75 µg/mL): 0.812

COC1CCCN(C(=O)CN2Cc3ccccc3OC(c3ccccc3F)C2)C1 (configuration not stated)
bacterial growth OD600 (polymyxin B 0.75 µg/mL): 0.007

COc1ccc(O)c(CNC2COc3c(cccc3OC)C2)c1 (configuration not stated)
bacterial growth OD600 (polymyxin B 0.75 µg/mL): 0.791

COc1ccc(CN(C)CC2CCCN(CCc3ccc(F)cc3)C2)c(OC)c1OC (configuration not stated)
bacterial growth OD600 (polymyxin B 1 µg/mL): 0.747

O=C(CCC(=O)N1CCCC(Nc2ccc(F)c(F)c2)C1)c1ccccc1 (configuration not stated)
bacterial growth OD600 (polymyxin B 1 µg/mL): 0.588

COc1ccc(Cc2noc(-c3ccc(N4CCCC4)nc3)n2)cc1
bacterial growth OD600 (polymyxin B 1 µg/mL): 0.901

CN(Cc1ccccn1)C(=O)c1cc(Cn2ccc3ccccc32)[nH]n1
bacterial growth OD600 (polymyxin B 0.75 µg/mL): 0.773

O=C(CCc1ccsc1)NC1CC(=O)N(Cc2ccc(F)cc2)C1 (configuration not stated)
bacterial growth OD600 (polymyxin B 1 µg/mL): 0.893

COc1cc([C@@H]2C[C@H]3CN(C4CCCC4)C(=O)[C@]34CCCN24)cc(OC)c1OC
bacterial growth OD600 (polymyxin B 0.75 µg/mL): 0.871

Cn1c(C2CCC2)nc2cc(C(=O)N3CCC(c4ccncc4)CC3)cc(NC(=O)C3CCCO3)c21 (configuration not stated)
bacterial growth OD600 (polymyxin B 0.75 µg/mL): 0.809

Cc1cc(CN2CCCC(CNC(=O)c3cccc(C(F)(F)F)c3)C2)[nH]n1 (configuration not stated)
bacterial growth OD600 (polymyxin B 0.75 µg/mL): 0.84

Cc1nc(N2CCC(NCCC3=CCCCC3)CC2)nc2ccc(F)cc12
bacterial growth OD600 (polymyxin B 0.75 µg/mL): 0.731

CC(C)CCCC1CN(C(=O)CCN2CCCCO2)CCO1 (configuration not stated)
bacterial growth OD600 (polymyxin B 1 µg/mL): 0.976

O=C(NC1CCC1)c1cc(CN2CCOCC2)on1
bacterial growth OD600 (polymyxin B 1 µg/mL): 0.917

Cc1ccccc1-n1ncc(C(C)NC(=O)c2cccs2)c1C (configuration not stated)
bacterial growth OD600 (polymyxin B 1 µg/mL): 0.911

CC(C)CC(=O)Nc1ccnn1C1CCN(Cc2cc[nH]n2)CC1
bacterial growth OD600 (polymyxin B 1 µg/mL): 0.941

O=C1O[C@@H]2CN(C3Cc4ccccc4C3)C[C@@H]2N1CCc1ccccn1
bacterial growth OD600 (polymyxin B 1 µg/mL): 1.17

Cc1nc(CC(=O)N(Cc2ccc(OCc3ccccn3)cc2)[C@H]2CCCCNC2=O)cs1
bacterial growth OD600 (polymyxin B 0.75 µg/mL): 0.835

Cc1c(CNCc2cccnc2Oc2ccc(F)c(F)c2)cnn1C
bacterial growth OD600 (polymyxin B 0.75 µg/mL): 0.777

Cc1nc(CN2CCC(N3CCC(C(=O)NCCc4ccccc4)CC3)CC2)c[nH]1
bacterial growth OD600 (polymyxin B 1 µg/mL): 1.16

COC(=O)c1c(S(=O)(=O)N2CCCC2)sc2c1CCN(C(=O)C(=O)c1ccccc1)C2
bacterial growth OD600 (polymyxin B 0.75 µg/mL): 0.744

COc1cccc(CN2CCCC2C(=O)Nc2ccc(-c3cscn3)cc2)c1 (configuration not stated)
bacterial growth OD600 (polymyxin B 0.75 µg/mL): 0.568

CCOC(=O)CCNC(=O)C1CC(=O)c2sc(NC(=O)c3c(F)cccc3Cl)nc2C1 (configuration not stated)
bacterial growth OD600 (polymyxin B 0.75 µg/mL): 0.819
